Reference: PubChem BioAssay (NCI)
What follows is the remainder of the data, with few or none of the hits. Active and inactive are the calls of the source. No stated cut-off is given here; in the data, active means growth inhibition above about 70%; inactive means the rest.

How the values were obtained:
[1] = NCI Yeast Anticancer Drug Screen. Data for the rad52 strain (AID 147);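 further: 0% = growth of vehicle-treated control cultures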; conditions: S. cerevisiae rad52 mutant growth inhibition, hits give high values
Summary of the method: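 Growth of repair-deficient yeast cells was compared between compound-treated and vehicle-treated cultures to give percent inhibition.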

[2] = NCI Yeast Anticancer Drug Screen. Data for the wt1 strain (AID 149);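 further: 0% = growth of vehicle-treated wt1 cultures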; conditions: S. cerevisiae wt1 strain (SPY 50644) growth inhibition, hits give high values
Summary of the method: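 Growth inhibition read against vehicle controls after compound exposure of the wt1 yeast strain.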

[3] = NCI Yeast Anticancer Drug Screen. Data for the mgt1 strain (AID 153); conditions: S. cerevisiae mgt1 mutant growth inhibition, hits give high values
Summary of the method: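 Compounds were applied to mgt1 mutant yeast, and growth was then compared against vehicle-treated control cultures to give percent inhibition.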

[4] = NCI Yeast Anticancer Drug Screen. Data for the rad14 strain (AID 159);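 further: 0% = growth of vehicle-treated control cultures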; conditions: S. cerevisiae rad14 strain growth inhibition, hits give high values
Summary of the method: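 Growth inhibition vs vehicle controls; genetically altered yeast strain (DNA damage repair defect) treated with test compounds.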

[5] = NCI Yeast Anticancer Drug Screen. Data for the CLN2oe strain (AID 163);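 further: 0% = growth of vehicle-only control cultures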; conditions: S. cerevisiae CLN2oe strain, hits give high values
Summary of the method: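 Cells of an engineered yeast line with disturbed cell-cycle regulation are treated with compound. Inhibition of growth is then calculated relative to the vehicle-treated reference.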

[6] = NCI Yeast Anticancer Drug Screen. Data for the wt2 strain (AID 169);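 further: 0% = growth of vehicle-treated yeast cultures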; conditions: S. cerevisiae wt2 strain growth inhibition, hits give high values
Summary of the method: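 Growth of compound-treated yeast is measured and expressed as inhibition relative to vehicle-only controls.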

[7] = NCI Yeast Anticancer Drug Screen. Data for the mlh1 strain (AID 171);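 further: 0% = growth of vehicle-treated control cultures of the same strain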; conditions: S. cerevisiae mlh1 strain growth inhibition, hits give high values
Summary of the method: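 Test agents were incubated with yeast bearing a defined DNA damage repair or cell cycle control alteration; values are growth inhibition normalised to vehicle-treated cultures.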

[8] = NCI Yeast Anticancer Drug Screen. Data for the sgs1 strain (AID 173);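 further: 0% = growth of vehicle-only control cultures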; conditions: S. cerevisiae sgs1 mutant, hits give high values
Summary of the method: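 Strain with an altered DNA repair or cell cycle pathway exposed to compound. Growth then measured. Value = inhibition versus vehicle control.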

[9] = NCI Yeast Anticancer Drug Screen. Data for the rad18 strain (AID 177); conditions: S. cerevisiae rad18 mutant growth inhibition, hits give high values
Summary of the method: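 DNA-repair-defective yeast; compound treatment; growth inhibition scored against vehicle.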

[10] = NCI Yeast Anticancer Drug Screen. Data for the rad50EPP+ strain (AID 151);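 further: 0% = growth of vehicle-treated control cultures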; conditions: S. cerevisiae rad50 mutant strain, hits give high values
Summary of the method: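 Measured: growth inhibition of rad50EPP+ yeast. Reference: vehicle-treated controls. Screen uses strains with defined genetic alterations in DNA damage repair or cell cycle control.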

Measured: growth inhibition

CN(C)CCNC(=O)c1cc([N+](=O)[O-])cc2ccc(-c3ccccc3)nc12
inactive: [1]; at 1.2 µM -1% | [1]; at 3.7 µM -1% | [1]; at 11.0 µM -2% | [1]; at 33.0 µM 1% | [1]; at 100.0 µM 35% | [2]; at 1.2 µM -1% | [2]; at 3.7 µM -2% | [2]; at 11.0 µM -4% | [2]; at 33.0 µM -3% | [2]; at 100.0 µM -1% | [3]; at 1.2 µM -2% | [3]; at 3.7 µM -1% | [3]; at 11.0 µM -1% | [3]; at 33.0 µM -2% | [3]; at 100.0 µM 1% | [4]; at 1.2 µM 2% | [4]; at 3.7 µM 2% | [4]; at 11.0 µM 3% | [4]; at 33.0 µM 4% | [4]; at 100.0 µM 9% | [5]; at 1.2 µM 2% | [5]; at 3.7 µM -2% | [5]; at 11.0 µM -1% | [5]; at 33.0 µM -4% | [5]; at 100.0 µM -5% | [6]; at 1.2 µM -1% | [6]; at 3.7 µM 8% | [6]; at 11.0 µM -1% | [6]; at 33.0 µM 1% | [6]; at 100.0 µM 3% | [7]; at 1.2 µM -3% | [7]; at 3.7 µM -2% | [7]; at 11.0 µM -1% | [7]; at 33.0 µM -2% | [7]; at 100.0 µM 3% | [8]; at 1.2 µM -2% | [8]; at 3.7 µM 0% | [8]; at 11.0 µM 4% | [8]; at 33.0 µM 4% | [8]; at 100.0 µM 15% | [9]; at 1.2 µM 0% | [9]; at 3.7 µM 0% | [9]; at 11.0 µM -1% | [9]; at 33.0 µM 5% | [9]; at 100.0 µM 24%

COc1ccc2c(c1)N(CCC1CCCCN1C)c1ccccc1S2 (stereo not given)
inactive: [1]; at 1.2 µM -3% | [1]; at 3.7 µM -4% | [1]; at 11.0 µM -6% | [1]; at 33.0 µM -6% | [1]; at 100.0 µM 23% | [2]; at 1.2 µM 0% | [2]; at 3.7 µM -1% | [2]; at 11.0 µM -2% | [2]; at 33.0 µM -6% | [2]; at 100.0 µM 3% | [10]; at 1.2 µM -7% | [10]; at 3.7 µM -7% | [10]; at 11.0 µM -10% | [10]; at 33.0 µM -12% | [10]; at 100.0 µM -13% | [3]; at 1.2 µM -2% | [3]; at 3.7 µM 0% | [3]; at 11.0 µM -2% | [3]; at 33.0 µM -3% | [3]; at 100.0 µM 27% | [4]; at 1.2 µM -2% | [4]; at 3.7 µM -3% | [4]; at 11.0 µM 3% | [4]; at 33.0 µM 0% | [4]; at 100.0 µM 67% | [5]; at 1.2 µM -7% | [5]; at 3.7 µM 0% | [5]; at 11.0 µM -2% | [5]; at 33.0 µM 3% | [5]; at 100.0 µM 39% | [6]; at 1.2 µM -2% | [6]; at 3.7 µM -1% | [6]; at 11.0 µM -3% | [6]; at 33.0 µM -2% | [6]; at 100.0 µM 26% | [7]; at 1.2 µM -3% | [7]; at 3.7 µM -1% | [7]; at 11.0 µM -2% | [7]; at 33.0 µM -26% | [7]; at 100.0 µM 26% | [8]; at 1.2 µM -4% | [8]; at 3.7 µM -4% | [8]; at 11.0 µM -5% | [8]; at 33.0 µM -2% | [8]; at 100.0 µM 40% | [9]; at 1.2 µM -17% | [9]; at 3.7 µM -14% | [9]; at 11.0 µM -44% | [9]; at 33.0 µM -17% | [9]; at 100.0 µM 16%

O=C1OC(c2cccc([N+](=O)[O-])c2)Sc2ccccc21 (stereo not given)
inactive: [1]; at 1.2 µM -1% | [1]; at 3.7 µM -1% | [1]; at 11.0 µM 2% | [1]; at 33.0 µM 8% | [1]; at 100.0 µM 0% | [2]; at 1.2 µM -2% | [2]; at 3.7 µM -1% | [2]; at 11.0 µM 0% | [2]; at 33.0 µM 4% | [2]; at 100.0 µM 2% | [10]; at 1.2 µM -1% | [10]; at 3.7 µM 8% | [10]; at 11.0 µM 15% | [10]; at 33.0 µM 15% | [10]; at 100.0 µM 11% | [3]; at 1.2 µM 1% | [3]; at 3.7 µM 4% | [3]; at 11.0 µM 20% | [3]; at 33.0 µM 2% | [3]; at 100.0 µM -31% | [4]; at 1.2 µM 0% | [4]; at 3.7 µM 1% | [4]; at 11.0 µM 6% | [4]; at 33.0 µM 6% | [4]; at 100.0 µM 5% | [5]; at 1.2 µM 1% | [5]; at 3.7 µM 1% | [5]; at 11.0 µM 3% | [5]; at 33.0 µM 3% | [5]; at 100.0 µM 2% | [6]; at 1.2 µM -3% | [6]; at 3.7 µM -2% | [6]; at 11.0 µM 0% | [6]; at 33.0 µM 5% | [6]; at 100.0 µM 1% | [7]; at 1.2 µM -1% | [7]; at 3.7 µM -2% | [7]; at 11.0 µM -1% | [7]; at 33.0 µM 2% | [7]; at 100.0 µM 5% | [8]; at 1.2 µM -2% | [8]; at 3.7 µM -1% | [8]; at 11.0 µM 1% | [8]; at 33.0 µM 4% | [8]; at 100.0 µM 3%

CCN(CCO)C(C(=O)c1ccc(-c2ccccc2)cc1)c1ccc(-c2ccccc2)cc1 (stereo not given)
inactive: [1]; at 1.2 µM 0% | [1]; at 3.7 µM 0% | [1]; at 11.0 µM -1% | [1]; at 33.0 µM -2% | [1]; at 100.0 µM -4% | [2]; at 1.2 µM -1% | [2]; at 3.7 µM -1% | [2]; at 11.0 µM -2% | [2]; at 33.0 µM -1% | [2]; at 100.0 µM -2% | [10]; at 1.2 µM -2% | [10]; at 3.7 µM 0% | [10]; at 11.0 µM 1% | [10]; at 33.0 µM 0% | [10]; at 100.0 µM 3% | [3]; at 1.2 µM -2% | [3]; at 3.7 µM -1% | [3]; at 11.0 µM -4% | [3]; at 33.0 µM -2% | [3]; at 100.0 µM -4% | [4]; at 1.2 µM -1% | [4]; at 3.7 µM -2% | [4]; at 11.0 µM -3% | [4]; at 33.0 µM -5% | [4]; at 100.0 µM -5% | [5]; at 1.2 µM 0% | [5]; at 3.7 µM -3% | [5]; at 11.0 µM 0% | [5]; at 33.0 µM 1% | [5]; at 100.0 µM -1% | [6]; at 1.2 µM -2% | [6]; at 3.7 µM -2% | [6]; at 11.0 µM -2% | [6]; at 33.0 µM -2% | [6]; at 100.0 µM -2% | [7]; at 1.2 µM -3% | [7]; at 3.7 µM -3% | [7]; at 11.0 µM -1% | [7]; at 33.0 µM 0% | [7]; at 100.0 µM -3% | [8]; at 1.2 µM -1% | [8]; at 3.7 µM -1% | [8]; at 11.0 µM -1% | [8]; at 33.0 µM -1% | [8]; at 100.0 µM -1% | [9]; at 1.2 µM -3% | [9]; at 3.7 µM -3% | [9]; at 11.0 µM -2% | [9]; at 33.0 µM -4% | [9]; at 100.0 µM -4%
